According to the supplement of paper PMC12542422:
Counter-ions that a name gives are not always drawn. ± gives the standard deviation of the averaged measurements. The list shows a part of the results. These are raw signals, not scaled to a control.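 Across three biological replicates, HeLa cells were imaged for ribosome assembly using ENP1 staining (export block present or absent) or inducible tagged ribosomal protein reporters. Machine learning classified each cell's signal localization relative to DMSO controls. Hits exceeded the DMSO false-positive mean by five standard deviations and were then visually confirmed.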

What follows are compounds tested on HeLa K (ENP1 immunofluorescence, +LMB) (assay: fraction of cells with nucleolar or nucleolar/nucleoplasmic ENP1 signal (MainHitrate); higher = more cells with nucleolar/nuclear readout signal (for ENP1 -LMB: less RNAPI inhibition; for +LMB ENP1 and RP reporters: stronger nuclear/nucleolar retention, i.e. ribosome biogenesis defect)). Settings: concentration: 1 µM; treatment time: 6 h; ENP1 +LMB; leptomycin B: 20 nM, last 1.5 h.

Row | Compound | fraction
1 | CN1CCC[C@H]1c1cccnc1 [Nicotine Ditartrate] | 0.254 ± 0.39
2 | CCOC(=O)C1=C(COCCN)NC(C)=C(C(=O)OC)C1c1ccccc1Cl (stereo not given) [Amlodipine (Norvasc)] | 0.136 ± 0.2
3 | C[C@]12CC[C@@H]3c4ccc(O)cc4C[C@@H](CCCCCCCCC[S+]([O-])CCCC(F)(F)C(F)(F)F)[C@H]3[C@@H]1CC[C@@H]2O (stereo not given in full) [Fulvestrant (Faslodex)] | 0.0679 ± 0.061
4 | COc1ccc(O)cc1 [Mequinol] | 0.0988 ± 0.15
5 | Nc1cccc2c1CN(C1CCC(=O)NC1=O)C2=O (stereo not given) [Lenalidomide] | 0.0567 ± 0.018
6 | O=C(O)COCCN1CCN(C(c2ccccc2)c2ccc(Cl)cc2)CC1 (stereo not given) [Cetirizine Dihydrochloride] | 0.0597 ± 0.04
7 | COCCOC(=O)C1=C(C)NC(C)=C(C(=O)OC(C)C)C1c1cccc([N+](=O)[O-])c1 (stereo not given) [Nimodipine (Nimotop)] | 0.0987 ± 0.097
8 | CN1CCCC(n2nc(Cc3ccc(Cl)cc3)c3ccccc3c2=O)CC1 (stereo not given) [Azelastine hydrochloride (Astelin)] | 0.194 ± 0.28
9 | CC(C)OC(=O)OCOP(=O)(CO[C@H](C)Cn1cnc2c(N)ncnc21)OCOC(=O)OC(C)C [Tenofovir Disoproxil Fumarate] | 0.108 ± 0.14
10 | OC[C@@H](O)[C@@H](O)[C@H](O)[C@H](O)CO [D-Mannitol (Osmitrol)] | 0.138 ± 0.2
11 | CC(C)OC(=O)C(C)(C)Oc1ccc(C(=O)c2ccc(Cl)cc2)cc1 [Fenofibrate (Tricor, Trilipix)] | 0.0785 ± 0.094
12 | Cc1ccc(C)c(OCCCC(C)(C)C(=O)O)c1 [Gemfibrozil (Lopid)] | 0.0965 ± 0.11
13 | C[C@]12CCC(=O)C=C1[C@@H]1C[C@@H]1[C@H]1[C@@H]3[C@@H]4C[C@@H]4[C@@]4(CCC(=O)O4)[C@@]3(C)CC[C@@H]12 [Drospirenone] | 0.103 ± 0.14
14 | O=C1c2cccc3c2[C@H](CCC3)CN1[C@@H]1CN2CCC1CC2 [Palonosetron HCl] | 0.0874 ± 0.12
15 | CN(Cc1cnc2nc(N)nc(N)c2n1)c1ccc(C(=O)N[C@@H](CCC(=O)O)C(=O)O)cc1 [Abitrexate (Methotrexate)] | 0.18 ± 0.25
16 | Cc1ccc(C(=O)c2ccc(CC(=O)O)n2C)cc1 [Tolmetin Sodium] | 0.155 ± 0.18
17 | C=C1CC[C@H](O)C/C1=C/C=C1\CCC[C@]2(C)[C@@H]([C@H](C)CCCC(C)C)CC[C@@H]12 [Vitamin D3 (Cholecalciferol)] | 0.0452 ± 0.044
18 | NCC[C@H](O)C(=O)N[C@@H]1C[C@H](N)[C@@H](O[C@H]2O[C@H](CN)[C@@H](O)[C@H](O)[C@H]2O)[C@H](O)[C@H]1O[C@H]1O[C@H](CO)[C@@H](O)[C@H](N)[C@H]1O [Amikacin sulfate] | 0.0587 ± 0.08
19 | CN1CCc2cccc3c2[C@H]1Cc1ccc(O)c(O)c1-3 [R-(-)-Apomorphine HCl Hemihydrate] | 0.167 ± 0.24
20 | Cc1nccn1CC1CCc2c(c3ccccc3n2C)C1=O (stereo not given) [Ondansetron (Zofran)] | 0.0942 ± 0.14

Row | Compound | fraction
21 | N[C@@H](Cc1cc(I)c(Oc2cc(I)c(O)c(I)c2)c(I)c1)C(=O)O [L-Thyroxine] | 0.0539 ± 0.067
22 | O=C(O)CCCN1CCC(O[C@@H](c2ccc(Cl)cc2)c2ccccn2)CC1 [Bepotastine Besilate] | 0.109 ± 0.16
23 | CC[C@@H]([C@H](C)O)n1ncn(-c2ccc(N3CCN(c4ccc(OC[C@@H]5CO[C@@](Cn6cncn6)(c6ccc(F)cc6F)C5)cc4)CC3)cc2)c1=O [Posaconazole] | 0.0942 ± 0.084
24 | CNCC[C@@H](Oc1ccccc1C)c1ccccc1 [Atomoxetine HCl] | 0.115 ± 0.17
25 | CCN(CC)CCCC(C)Nc1ccnc2cc(Cl)ccc12 (stereo not given) [Chloroquine Phosphate] | 0.0472 ± 0.055
26 | CC(C[N+](C)(C)C)OC(N)=O (stereo not given) [Bethanechol chloride] | 0.171 ± 0.27
27 | COC(=O)Nc1nc2cc(Sc3ccccc3)ccc2[nH]1 [Fenbendazole (Panacur)] | 0.109 ± 0.15
28 | Nc1ccn([C@@H]2CS[C@H](CO)O2)c(=O)n1 [Lamivudine (Epivir)] | 0.0686 ± 0.056
29 | CC(=O)Oc1ccccc1C(=O)O [Aspirin (Acetylsalicylic acid)] | 0.11 ± 0.17
30 | Cc1cccc(N(C)C(=S)Oc2ccc3ccccc3c2)c1 [Tolnaftate] | 0.131 ± 0.18
31 | CC[C@@]1(O)C(=O)OCc2c1cc1n(c2=O)Cc2cc3c(CN(C)C)c(O)ccc3nc2-1 [Topotecan HCl] | 0.178 ± 0.23
32 | C[C@]12CCC3=C4CCC(=O)C=C4CC[C@H]3[C@@H]1CC[C@@]2(O)CC#N [Dienogest] | 0.144 ± 0.2
33 | OC(CNCC(O)C1CCc2cc(F)ccc2O1)C1CCc2cc(F)ccc2O1 (stereo not given) [Nebivolol (Bystolic)] | 0.0658 ± 0.061
34 | Nc1ncnc2c1ncn2[C@@H]1O[C@H](COP(=O)(O)OP(=O)(O)OP(=O)(O)O)[C@@H](O)[C@H]1O [ATP (Adenosine-Triphosphate)] | 0.0877 ± 0.13
35 | COC(=O)Nc1nc2cc([S+]([O-])c3ccccc3)ccc2[nH]1 (stereo not given) [Oxfendazole] | 0.106 ± 0.16
36 | O=C(O)c1ccccc1 [Benzoic acid] | 0.0347 ± 0.038
37 | CCCc1nc(C(C)(C)O)c(C(=O)OCc2oc(=O)oc2C)n1Cc1ccc(-c2ccccc2-c2nnn[nH]2)cc1 [Olmesartan medoxomil (Benicar)] | 0.0829 ± 0.081
38 | O=C(O)c1cc(-c2ccccc2)nc2ccccc12 [Cinchophen] | 0.0819 ± 0.12
39 | Clc1ccc(C(c2ccccc2Cl)C(Cl)Cl)cc1 (stereo not given) [Mitotane (Lysodren)] | 0.0758 ± 0.056
40 | CCCCOc1ccc(C(=O)CCN2CCCCC2)cc1 [Dyclonine HCl] | 0.0922 ± 0.14

Part of the list above in order of length of the SMILES, falling:
Row | Compound | fraction
34 | Nc1ncnc2c1ncn2[C@@H]1O[C@H](COP(=O)(O)OP(=O)(O)OP(=O)(O)O)[C@@H](O)[C@H]1O [ATP (Adenosine-Triphosphate)] | 0.0877 ± 0.13
27 | COC(=O)Nc1nc2cc(Sc3ccccc3)ccc2[nH]1 [Fenbendazole (Panacur)] | 0.109 ± 0.15
24 | CNCC[C@@H](Oc1ccccc1C)c1ccccc1 [Atomoxetine HCl] | 0.115 ± 0.17
